Data as given in PubChem BioAssay AID1053208 (Peter MacCallum Cancer Centre, 2014)

Purpose: 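Synthetic lethal interactions between gene loss and doxorubicin in osteosarcoma cells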 (primary screen)
System: mouse osteosarcoma cells, early-passage culture from an engineered mouse model of fibroblastic bone tumour
Reagents: siRNA pool against mouse genes, 40 nM
Duration: about 120 h (48 h before drug, then 72 h with drug)
Conditions: doxorubicin 100 nM for 72 h, roughly 30-40% inhibitory dose
Measured: 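Viability read as ATP luminescence after 72 h of 100 nM doxorubicin or none, duplicate wells averaged, scaled to non-targeting siRNA, then expressed as robust z-scores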
Scale: viability z-score with doxorubicin and doxorubicin viability vs non-targeting: higher = more viable cells under doxorubicin; viability z-score without drug: higher = more viable cells with knock-down alone; z-score of drug to no-drug ratio: higher = less drug sensitisation by knock-down
Call rule: 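a pool counts as active when its viability z-score with doxorubicin is -2 or below and its z-score without drug lies between -2 and 2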
The deposit covers about 17,000 reagents; this is an unselected part. In the full data, 788 (4.7%) were called active. 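Calls rest on z-score classes alone; an extra cut-off of viability at most 70% of control was not applied to them.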 Entries without a mark were called inactive. The numbers tell different reagents against one gene apart. No sequences are given here.

target gene	pool no.	combined z-score class	viability z-score with doxorubicin	viability z-score without drug	z-score of drug to no-drug ratio	doxorubicin viability vs non-targeting
Psg16 (GeneID 26436)	1	no change with or without drug	0.67	0.51	0.45	1
Or6c216 (GeneID 258791)	1	low cell count with doxorubicin only (active)	-2.36	-0.84	-1.91	0.73
Skint9 (GeneID 329918)	1	no change with or without drug	-1.12	0.67	-1.46	0.84
Lce1h (GeneID 67718)	1	high cell count with doxorubicin only	3.48	1.18	2.81	1.25
Lst1 (GeneID 16988)	1	no change with or without drug	-1.35	-1.18	-0.56	0.82
Sdf2 (GeneID 20316)	1	high cell count with doxorubicin only	3.93	1.85	2.7	1.29
Kifbp (GeneID 72320)	1	no change with or without drug	1.24	1.35	0.45	1.05
Stip1 (GeneID 20867)	1	no change with or without drug	-1.12	-1.35	-0.11	0.84
Fcgr2b (GeneID 14130)	1	no change with or without drug	-0.22	1.52	-1.12	0.92
Pnkp (GeneID 59047)	1	no change with or without drug	0.67	0.67	0.34	1
Mea1 (GeneID 17256)	1	no change with or without drug	0.34	1.01	-0.22	0.97
Reg3a (GeneID 19694)	1	no change with or without drug	0.22	-0.51	0.67	0.96

2 entries already listed, arranged by “doxorubicin viability vs non-targeting”, ascending:
target gene	pool no.	combined z-score class	viability z-score with doxorubicin	viability z-score without drug	z-score of drug to no-drug ratio	doxorubicin viability vs non-targeting
Stip1 (GeneID 20867)	1	no change with or without drug	-1.12	-1.35	-0.11	0.84
Kifbp (GeneID 72320)	1	no change with or without drug	1.24	1.35	0.45	1.05

More results:
target gene	pool no.	combined z-score class	viability z-score with doxorubicin	viability z-score without drug	z-score of drug to no-drug ratio	doxorubicin viability vs non-targeting
Med29 (GeneID 67224)	1	high cell count with doxorubicin only	2.25	1.52	1.35	1.14
Nlrp3 (GeneID 216799)	1	no change with or without drug	0	0.67	-0.34	0.94
Nr4a3 (GeneID 18124)	1	high cell count with doxorubicin only	2.59	-0.17	2.92	1.17
Naalad2 (GeneID 72560)	1	no change with or without drug	0.45	0.51	0.22	0.98
Pfkl (GeneID 18641)	1	no change with or without drug	0.34	-1.18	1.35	0.97
Nabp2 (GeneID 69917)	1	no change with or without drug	-1.69	-0.84	-1.12	0.79
Vstm4 (GeneID 320736)	1	no change with or without drug	-0.34	1.52	-1.12	0.91
Etaa1 (GeneID 68145)	1	no change with or without drug	1.12	1.35	0.34	1.04
Abcc12 (GeneID 244562)	1	no change with or without drug	0.67	-0.17	0.9	1
Gc (GeneID 14473)	1	low cell count with doxorubicin only (active)	-2.14	-1.01	-1.57	0.75
9130221H12Rik (GeneID 77124)	1	no change with or without drug	0.67	0.84	0.22	1
Epdr1 (GeneID 105298)	1	no change with or without drug	0.79	0.84	0.34	1.01
Epdr1 (GeneID 105298)	2	no change with or without drug	-1.01	-1.35	0	0.85
Dnaaf1 (GeneID 68270)	1	high cell count without drug only	1.35	4.05	-1.01	1.06
Apobec2 (GeneID 11811)	1	no change with or without drug	1.57	-0.17	1.91	1.08
Tmt1a2 (GeneID 393082)	1	high cell count with and without drug	3.15	2.19	1.69	1.22
Col5a1 (GeneID 12831)	1	no change with or without drug	1.12	0.34	1.01	1.04
Iqgap1 (GeneID 29875)	1	no change with or without drug	-0.45	1.01	-1.01	0.9
Rasa2 (GeneID 114713)	1	high cell count without drug only	0.67	2.53	-0.79	1
Rps28 (GeneID 54127)	1	low cell count with and without drug	-6.41	-4.89	-4.72	0.37
Zcchc18 (GeneID 66995)	1	no change with or without drug	0.9	-0.51	1.46	1.02
Pnpla3 (GeneID 116939)	1	no change with or without drug	-0.67	-1.18	0.22	0.88
